# PubChem BioAssay AID1159584, Peter MacCallum Cancer Centre | 2016
# Screen: 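Knock-downs that harm CDH1-null cells more than parental MCF10A cells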 (primary screen)
# Cells: human MCF10A breast epithelial cells, parental and CDH1-null
# Reagent: siRNA against human genes
# Measurement: 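Cell viability by CellTiter-Glo ATP luminescence, each line scaled to the mean of mock wells across plates, then CDH1-null over parental ratio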
# Reading the numbers: CDH1-null / parental viability ratio: higher = CDH1-null cells survive relatively better than parental; CDH1-null viability vs mock: higher = more viable CDH1-null cells; parental viability vs mock: higher = more viable parental cells
# Here is a random part of about 18,000 reagents tested. Not stated in the record: the amount of reagent, the time to read-out.
gene,CDH1-null / parental viability ratio,CDH1-null viability vs mock (fraction of mock),parental viability vs mock (fraction of mock)
ZNF627 (GeneID 199692),1.09,0.99,0.91
CEACAM8 (GeneID 1088),0.94,0.78,0.83
CLPX (GeneID 10845),1.03,0.68,0.66
CHRNA2 (GeneID 1135),1.3,0.96,0.74
GLRA1 (GeneID 2741),1.23,1,0.81
NFYC (GeneID 4802),1,1.08,1.08
ATG2B (GeneID 55102),1.31,1.05,0.8
FAM186B (GeneID 84070),0.96,0.94,0.98
FCRL3 (GeneID 115352),0.89,0.71,0.8
TBC1D19 (GeneID 55296),1.2,0.98,0.82
FAM193A (GeneID 8603),1.13,0.8,0.71
SMIM7 (GeneID 79086),0.97,0.62,0.64
TUBGCP2 (GeneID 10844),1.45,0.74,0.51
MIR9-1HG (GeneID 10485),1.18,0.66,0.56
FAAP100 (GeneID 80233),0.99,1.09,1.1
CENPE (GeneID 1062),1.04,0.76,0.73
CMYA5 (GeneID 202333),0.93,1.04,1.12
LDB2 (GeneID 9079),1.03,0.75,0.73
SDC1 (GeneID 6382),1.58,0.6,0.38
PRSS2 (GeneID 5645),0.88,0.76,0.86
CAPN1 (GeneID 823),1.05,0.84,0.8
IMMP2L (GeneID 83943),1.21,0.87,0.72
NOP10 (GeneID 55505),0.9,0.72,0.8
SERPINH1 (GeneID 871),1.09,0.76,0.7
NCLN (GeneID 56926),0.95,0.79,0.83
GNPTG (GeneID 84572),0.86,0.76,0.88
RNASE3 (GeneID 6037),0.79,0.74,0.94
SCPEP1 (GeneID 59342),1.02,0.98,0.96
RASSF6 (GeneID 166824),0.81,0.62,0.77
OR5D14 (GeneID 219436),1.19,0.92,0.77
VRK2 (GeneID 7444),0.97,0.91,0.94
PSMD11 (GeneID 5717),1.11,0.6,0.54
BCL7B (GeneID 9275),1.64,1.05,0.64
ITGAX (GeneID 3687),1.03,1.04,1.01
ASB17 (GeneID 127247),0.99,0.83,0.84
COL6A2 (GeneID 1292),1.32,1.08,0.82
STARD7 (GeneID 56910),0.84,0.74,0.88
VAT1L (GeneID 57687),0.97,0.58,0.6
RBM11 (GeneID 54033),0.85,0.82,0.96
SNX5 (GeneID 27131),0.95,0.8,0.84
ITGB1 (GeneID 3688),0.92,0.92,1
KPNA2 (GeneID 3838),1.1,0.92,0.84
UGT3A1 (GeneID 133688),1,0.84,0.84
TNFRSF13B (GeneID 23495),0.68,0.45,0.66
CLIC3 (GeneID 9022),1.24,1.09,0.88
ZNF831 (GeneID 128611),1.09,0.76,0.7

3 of these entries in another layout:
{"gene": "CMYA5 (GeneID 202333)", "CDH1-null / parental viability ratio": 0.93, "CDH1-null viability vs mock (fraction of mock)": 1.04, "parental viability vs mock (fraction of mock)": 1.12}
{"gene": "LDB2 (GeneID 9079)", "CDH1-null / parental viability ratio": 1.03, "CDH1-null viability vs mock (fraction of mock)": 0.75, "parental viability vs mock (fraction of mock)": 0.73}
{"gene": "SDC1 (GeneID 6382)", "CDH1-null / parental viability ratio": 1.58, "CDH1-null viability vs mock (fraction of mock)": 0.6, "parental viability vs mock (fraction of mock)": 0.38}
